Primary screen of a compound library

Data taken from ChEMBL document CHEMBL3988442, “University of Dundee, Small-Polar-MMV Screening Library” (2021).

Mtb heat-shock: 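Assay on Mycobacterium tuberculosis, filed only as a heat shock assay from Cornell; the read-out is not stated. The concentration is filed as 10 mM, unlikely as a test dose, so the dose is not known. The record gives no direction; compounds that gave an IC50 in retests scored well above the rest, so higher reads as stronger inhibition. About 69,000 compounds were tested under these conditions; 1.4% (about 930) showed 50% or more at least once.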
Mtb growth Cornell: 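Whole-cell assay for inhibitors of Mycobacterium tuberculosis growth, labelled Cornell in the record; the read-out is not stated. The concentration is filed as 10 mM, unlikely as a test dose, so the dose is not known. The record gives no direction; compounds strong in two other growth screens of this library score well above the rest, so higher reads as stronger inhibition. About 53,000 compounds were tested under these conditions; 1.7% (about 900) showed 50% or more at least once.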

Each number is a percent effect as filed.
The record does not define 0% and 100%; most values in the screen are far below 50% and negative numbers occur (in some assays of this library far below -100).
This is an unselected part of the compounds tested.
A dash means the value is not listed here; it may have been measured.

SMILES	Mtb heat-shock	Mtb growth Cornell
CSc1ncc(CNC(C)c2cnn(-c3ccc(F)cc3F)c2C)cn1 (stereo unspecified)	7.843	25.21
CN(Cc1ccccc1)C(=O)c1nc(S(C)(=O)=O)n2ccccc12	3.399	4.715
O=C(NCCOc1ncc(Cl)cc1Cl)c1cccnc1	-8.848	3.317
CCC(C)(NCC(=O)NC(C)C)c1nccs1 (stereo unspecified)	11.66	-11.08
Cc1ccc(CNC(=O)CCC(=O)NCCC(C)C)o1	-34.87	-
COCC(=O)Nc1cnc(N2CCN(c3ccccc3)CC2)nc1	9.289	16.12
Cc1nc(N2CCCCC2)ncc1C(=O)N1CC(C)(C)[C@@](C)(O)C1	-0.4181	13.46
CC(=O)N1CCCc2sc(C(=O)NC3CC3)nc21	-10.18	12.33
CCc1noc(C(C)N2CCN(CC(=O)N3CCOCC3)CC2)n1 (stereo unspecified)	11	11.6
O=C1NCC[C@]12CN(Cc1ccco1)C[C@H]2c1ccccc1	3.136	-9.54
Cc1ccc(NC(=O)CN2CCC(OCC3CCCO3)CC2)c(C)c1 (stereo unspecified)	-17.13	-
Cn1ccnc1CN1CCN(CC(=O)NCc2cccs2)CC1	-30.58	-23.26
O=C(O)C(F)(F)F.[H][C@@]12CCN(CCc3ccccc3)C[C@@]1([H])O[C@H](C(=O)N1CCCC1)C2	7.524	-
Cc1nc(C)c(Cc2nc(C3CC3)n[nH]2)c(=O)[nH]1	-21.38	11.05
COc1ccccc1C(=O)NCCCN1CCCC1C(=O)N(C)C (stereo unspecified)	12.15	1.522
[H][C@@]12CCCCN(Cc3cccc(C)c3)[C@]1([H])CN(c1ncccn1)C2	-22.22	-31.79
Cc1ncsc1CCC(=O)N1CCCC1c1cccnc1 (stereo unspecified)	1.005	11.46
Cc1ccsc1CN(C)c1cc(N2CCOCC2)ncn1	-6.71	-
Cc1cc(CNCC2CNc3ccnn3C2)no1 (stereo unspecified)	0.3912	-29.07
Cc1cc(C)n(C2CN(CC(=O)N(C)Cc3ccsc3)C2)n1	0.6574	14.46
O=C(CCOCC(F)(F)F)NS(=O)(=O)c1cccnc1	36.33	-
CCn1nc2c(cc1=O)CN(Cc1nc(-c3ccoc3)no1)CC2	-15.41	9.78
Cc1nnc(SCC(=O)c2cc3c(cc2Cl)NC(=O)C3)o1	2.943	14.6
O=C(NCCc1ccc(Cl)s1)N1CCS(=O)(=O)CC1	-7.629	3.625
CCSCc1ccnc(NC(=O)C2CCOC2)c1 (stereo unspecified)	-1.331	17.62
N#CCCN(Cc1ccco1)C(=O)c1ccc(OCC2CC2)cc1	14.1	14.76
CC(C)(C)CN1CCC(c2nnc(Cn3ccnc3)n2C2CC2)CC1	-14.95	-27.38
CCC(O)CN1CCN(C(=O)Cc2ccc(C)nc2)CC1 (stereo unspecified)	-0.05242	-
CC(C)n1nc2c(cc1=O)CN(CC(=O)N(C)c1nccs1)CC2	1.087	-52.2
Cc1c(F)cc(C(=O)O)cc1S(=O)(=O)Nc1ccc(C#N)cc1	-7.862	-
Cc1cc(C[S+]([O-])CC(=O)NCc2cccs2)no1 (stereo unspecified)	21.38	7.083
CCS(=O)(=O)NCCNC(=O)c1cnc(-c2ccccc2)nc1	13.7	-
OCC1(O)CCN(Cc2noc(-c3ccccc3)n2)CC1	-10.34	-
Cc1ccc(-c2nnc(SCC(=O)O)n2-c2ccc(C)cc2)cc1	10.57	-
CC(C)n1ccnc1CN1CCCN(C(=O)COC2CCCC2)CC1	1.629	-
Cc1ccccc1C(=O)NC[C@@H]1CCN(C(=O)CN2CCCC2)C[C@H]1O	10.66	-
CC(C)c1ocnc1C(=O)N1CCC(=O)Nc2cccnc21	-8.819	-
Cc1ccc(CNCc2c(C(C)C)nn(C)c2N2CCOCC2)s1	-1.161	-4.907
Cc1ccc(NC2CCN(C(=O)c3sccc3C3CC3)CC2)nn1	-14.63	-
CCN1Cc2c(C(=O)NC)ncn2-c2ccccc2S1(=O)=O	-6.695	10.06
Cn1cccc(NC(=O)NCCOCc2ccccc2)c1=O	5.474	28.05
COC1CCN(C(=O)c2ccccc2NCc2cccnc2)CC1	-7.864	-6.924
Cc1n[nH]c(=O)c2c(NC(=O)CN3CCOCC3C)oc(C)c12 (stereo unspecified)	-13.44	-7.291
O=C(O)C(F)(F)F.[H][C@]12CCN(c3ncc(CC)cn3)[C@@]1([H])CCC(=O)N2CC1CCOCC1	-10.7	-39.17
[H][C@@]12CCN(Cc3nccs3)[C@]1([H])CC[C@H](C(=O)NCC1CC1)O2	-11.69	-
CS(=O)(=O)Cc1ccc(Cl)cc1NCc1ccccc1F	52.35	-0.1944
O=C(NCc1cccnc1)N[C@H]1CC[C@@]2(CCC(=O)N2CC2CC2)CC1.O=C(O)C(F)(F)F	35.19	-7.873
COc1ccc(CCCC(=O)N2CCCC(n3cncn3)C2)cc1 (stereo unspecified)	-14.78	-
Cc1cc(CN2CCN(CC(=O)NC3(C#N)CCCCC3)CC2)on1	-6.587	23.75
CC(C)Cn1cncc1Cn1cccc(C(F)(F)F)c1=O	11.82	-4.02
Cn1ccc(CNC(=O)Nc2ccc(S(=O)(=O)C(F)F)cc2)c1	9.289	50.21
CCNC(=O)CN1CCN(Cc2nc3c(F)cccc3n2CC)CC1	-21.94	-
CC(=O)c1cccc(OCCCC(=O)N(C)Cc2cnc(C)s2)c1	-27.21	-2.926
Cc1cccc(OC2CCN(c3nc(N)nc4[nH]cnc34)CC2)c1	-12.52	-
O=C(O)C(F)(F)F.O=C(O)C(F)(F)F.[H][C@]12CCN(CC3CCOCC3)[C@@]1([H])CCC(COCc1cccnc1)O2 (stereo partly specified)	-20.11	-18.79
CN1C(=O)C(c2cccnc2)CC12CCN(C(=O)c1cccn1C)CC2 (stereo unspecified)	3.036	15.98
Cc1nc(NC2(CN3CCCCC3)CCCCC2)c2cnn(C)c2n1	4.189	-6.285
CC(C)c1cc(C(=O)N2CCOC3(CCCC3)C2)no1	13.11	-5.37
CC(C)n1[nH]c(=O)c2c1NC(=O)CC2c1ccc(S(C)(=O)=O)cc1 (stereo unspecified)	6.647	-40.54
OCC1(Cc2ccc(Cl)cc2)CCN(Cc2cccnc2)CC1	-7.796	-4.634
O=C(Nc1ccccn1)C1(n2cnnn2)CCCCC1	4.562	17.9
Cc1cc(NC(=O)CN2CCN(c3nccs3)C(C)C2)n(C)n1 (stereo unspecified)	16.95	1.438
NC(=O)Nc1cccc(F)c1C(=O)NC1CCCC1	-2.703	-

Some entries from above, unchanged:

| SMILES | Mtb heat-shock | Mtb growth Cornell |
|---|---|---|
| `CCn1nc2c(cc1=O)CN(Cc1nc(-c3ccoc3)no1)CC2` | -15.41 | 9.78 |
| `Cc1nc(NC2(CN3CCCCC3)CCCCC2)c2cnn(C)c2n1` | 4.189 | -6.285 |
| `O=C(O)C(F)(F)F.O=C(O)C(F)(F)F.[H][C@]12CCN(CC3CCOCC3)[C@@]1([H])CCC(COCc1cccnc1)O2` (stereo partly specified) | -20.11 | -18.79 |